Publication PMC9858354
No constants are given. Whether binding was seen depends on the method and setting. Values belong to the binder of their own block, whether it stands above or below them.

Assays:
[1] = target: T1, human C-C motif chemokine receptor-like 2 (CCRL2) isoform b, on HEK-huCCRL2 cells (human) (UniProt O00421); test: flow cytometry on cells; serially diluted biotin-labeled ligand on HEK-huCCRL2, HEK-muCCRL2 or parental HEK cells (2x10^4 cells/well, 384-well), PBS + 0.1% BSA, 4°C 45 min, detected with RRX-streptavidin; MFI normalized to parental HEK cell binding; EC50 from four-parameter fit; only the binder purified
T1 sequence: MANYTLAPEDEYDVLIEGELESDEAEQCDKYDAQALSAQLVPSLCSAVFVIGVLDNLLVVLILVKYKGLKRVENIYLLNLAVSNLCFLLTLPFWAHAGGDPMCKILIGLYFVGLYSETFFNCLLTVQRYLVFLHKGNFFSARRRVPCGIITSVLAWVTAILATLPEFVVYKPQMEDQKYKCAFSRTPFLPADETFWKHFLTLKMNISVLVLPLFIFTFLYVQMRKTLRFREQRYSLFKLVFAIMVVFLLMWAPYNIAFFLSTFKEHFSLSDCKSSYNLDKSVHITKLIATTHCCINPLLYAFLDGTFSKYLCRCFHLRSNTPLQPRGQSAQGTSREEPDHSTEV

[2] = target: T2, mouse C-C motif chemokine receptor-like 2 (CCRL2) isoform b, on HEK-muCCRL2 cells (mouse) (UniProt O35457); test: as above
T2 sequence: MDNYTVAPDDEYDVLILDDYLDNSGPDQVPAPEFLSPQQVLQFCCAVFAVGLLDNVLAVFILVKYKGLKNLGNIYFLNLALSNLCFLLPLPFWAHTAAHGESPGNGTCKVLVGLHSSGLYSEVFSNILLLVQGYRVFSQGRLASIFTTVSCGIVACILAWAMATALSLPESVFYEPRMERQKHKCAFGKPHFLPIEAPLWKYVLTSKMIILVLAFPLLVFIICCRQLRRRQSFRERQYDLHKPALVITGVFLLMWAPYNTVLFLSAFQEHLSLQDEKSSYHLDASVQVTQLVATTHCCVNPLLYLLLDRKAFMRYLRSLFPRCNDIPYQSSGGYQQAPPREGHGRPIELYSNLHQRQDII

- binding [1]: no binding
B1: biotin-labeled human CCL18 (ligand, UniProt P55774 21-89)
chain: AQVGTNKELCCLVYTSWQIPQKFIVDYSETSPQCPKPGVILLTKRGRQICADPNKKWVQKYISDLKLNA
modifications: biotin (biotin-labeled human ligands of Fig 1A; EZ-Link Sulfo-NHS-LC-Biotin)

- binding [2]: no binding
B2: biotin-labeled murine CCL19 (ligand, UniProt O70460 26-108)
chain: GANDAEDCCLSVTQRPIPGNIVKAFRYLLNEDGCRVPAVVFTTLRGYQLCAPPDQPWVDRIIRRLKKSSAKNKGNSTRRSPVS
modifications: biotin (EZ-Link Sulfo-NHS-LC-Biotin, biotin-to-analyte molar ratio 5:1)

- binding [2]: no binding
B3: biotin-labeled murine CCL8 (ligand, UniProt Q9Z121 24-97)
chain: GPDKAPVTCCFHVLKLKIPLRVLKSYERINNIQCPMEAVVFQTKQGMSLCVDPTQKWVSEYMEILDQKSQILQP
modifications: biotin (EZ-Link Sulfo-NHS-LC-Biotin, biotin-to-analyte molar ratio 5:1)
